In paper PMC3284512:
For some of these results: No signal at the amounts used counts as a negative. For some of these results: The exact form of at least one protein or probe is not confirmed. For some of these results: At least one result comes from cells or an extract, where the contact may be indirect.

Amino acid sequences for entries named in this document (tags omitted). A change or cut given only in a name is not applied to a line headed by its entry. Residues count along the entry.
UniProt P15941: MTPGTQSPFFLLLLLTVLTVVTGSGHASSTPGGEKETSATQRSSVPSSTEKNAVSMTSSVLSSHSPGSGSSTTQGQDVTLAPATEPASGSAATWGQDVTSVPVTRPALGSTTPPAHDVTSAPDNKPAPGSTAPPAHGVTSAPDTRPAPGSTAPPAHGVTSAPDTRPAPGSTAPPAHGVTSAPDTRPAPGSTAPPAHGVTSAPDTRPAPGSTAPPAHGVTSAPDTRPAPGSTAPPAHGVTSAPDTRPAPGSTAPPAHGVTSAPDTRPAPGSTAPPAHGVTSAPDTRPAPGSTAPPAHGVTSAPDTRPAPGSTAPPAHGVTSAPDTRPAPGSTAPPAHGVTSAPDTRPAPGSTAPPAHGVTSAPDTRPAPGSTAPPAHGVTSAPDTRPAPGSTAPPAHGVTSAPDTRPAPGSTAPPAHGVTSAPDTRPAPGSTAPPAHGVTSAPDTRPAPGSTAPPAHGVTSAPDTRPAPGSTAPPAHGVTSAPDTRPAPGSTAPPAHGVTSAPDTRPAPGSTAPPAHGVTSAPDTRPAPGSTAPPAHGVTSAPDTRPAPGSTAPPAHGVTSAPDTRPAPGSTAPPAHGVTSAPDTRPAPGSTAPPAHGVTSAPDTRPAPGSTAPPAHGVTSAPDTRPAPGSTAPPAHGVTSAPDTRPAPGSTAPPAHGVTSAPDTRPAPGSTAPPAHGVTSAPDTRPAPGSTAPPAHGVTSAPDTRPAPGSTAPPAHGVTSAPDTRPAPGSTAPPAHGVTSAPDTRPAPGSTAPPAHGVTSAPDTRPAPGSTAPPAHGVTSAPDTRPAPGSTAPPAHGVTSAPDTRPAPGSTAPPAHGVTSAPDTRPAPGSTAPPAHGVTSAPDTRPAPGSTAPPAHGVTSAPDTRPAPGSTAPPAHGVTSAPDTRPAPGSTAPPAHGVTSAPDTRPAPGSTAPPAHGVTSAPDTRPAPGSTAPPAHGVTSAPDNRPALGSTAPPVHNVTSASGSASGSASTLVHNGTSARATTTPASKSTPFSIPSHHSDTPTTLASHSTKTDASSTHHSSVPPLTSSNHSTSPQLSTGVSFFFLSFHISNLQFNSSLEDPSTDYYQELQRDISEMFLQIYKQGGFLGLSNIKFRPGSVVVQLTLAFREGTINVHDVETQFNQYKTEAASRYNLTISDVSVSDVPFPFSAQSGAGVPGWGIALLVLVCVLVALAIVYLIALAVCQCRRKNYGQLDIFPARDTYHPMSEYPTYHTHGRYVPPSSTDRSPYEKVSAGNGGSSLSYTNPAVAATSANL
UniProt P02769, 25-607: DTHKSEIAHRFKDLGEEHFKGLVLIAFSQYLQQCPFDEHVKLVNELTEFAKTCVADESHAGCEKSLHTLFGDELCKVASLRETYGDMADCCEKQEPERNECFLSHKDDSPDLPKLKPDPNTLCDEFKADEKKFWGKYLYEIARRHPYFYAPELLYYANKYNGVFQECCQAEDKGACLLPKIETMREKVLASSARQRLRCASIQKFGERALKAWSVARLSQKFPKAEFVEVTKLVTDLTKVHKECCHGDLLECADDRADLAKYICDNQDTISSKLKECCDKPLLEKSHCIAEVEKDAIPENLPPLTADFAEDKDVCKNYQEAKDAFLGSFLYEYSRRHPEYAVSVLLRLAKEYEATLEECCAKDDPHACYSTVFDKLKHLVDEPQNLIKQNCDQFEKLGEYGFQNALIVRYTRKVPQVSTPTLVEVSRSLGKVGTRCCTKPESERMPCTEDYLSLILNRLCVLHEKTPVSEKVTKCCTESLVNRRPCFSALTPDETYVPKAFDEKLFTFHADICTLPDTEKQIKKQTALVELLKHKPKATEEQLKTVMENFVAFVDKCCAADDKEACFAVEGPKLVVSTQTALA

Experiments:
MUC1 on A549 cells = MUC1 on A549 cells (UniProt P15941); assay: flow cytometry, cell binding; settings: A549 cells, Hanks buffer (binding buffer), 37 C, 30 min, 200 ul, aptamer DNA heated 95 C 5 min then cooled to 0 C (stated for SELEX pool and Dox loading), pH not stated, protein on the cell surface, single-stranded DNA
[1] = molecular target: Bovine serum albumin (bovine) (UniProt P02769); assay: flow cytometry, bead binding; settings: relatively weak signal, similar to random DNA; Hanks buffer (binding buffer), 37 C, 30 min, 200 ul; aptamer DNA heated 95 C 5 min then cooled to 0 C (stated for SELEX pool and Dox loading); pH not stated; commercial protein; protein details: EDC-coupled to magnetic beads; label: 5'-FITC; single-stranded DNA
MUC1 on MCF-7 cells = MUC1 on MCF-7 cells (UniProt P15941); assay: flow cytometry, cell binding; settings: MCF-7 cells; Hanks buffer (binding buffer), 37 C, 30 min, 200 ul; aptamer DNA heated 95 C 5 min then cooled to 0 C (stated for SELEX pool and Dox loading); pH not stated; protein on the cell surface; label: 5'-FITC; single-stranded DNA

Row | Sequence | binding result (MUC1 on A549 cells; doxorubicin-loaded, similar to MA3 alone, doxorubicin intercalated (non-covalent), label: FITC) | binding result [1] | binding result (MUC1 on A549 cells; significantly reduced by MUC1 siRNA, not by control siRNA, MUC1-negative HepG2 and L02 similar to random DNA, label: 5'-FITC) | binding result (MUC1 on MCF-7 cells)
1 | AACCGCCCAAATCCCTAAGAGTCGGACTGCAACCTATGCTATCGTTGATGTCTGTCCAAGCAACACAGACACACTACACACGCACA [MA3-doxorubicin complex (Apt-Dox)] | binds |  |  | 
2 | AACCGCCCAAATCCCTAAGAGTCGGACTGCAACCTATGCTATCGTTGATGTCTGTCCAAGCAACACAGACACACTACACACGCACA [MA3] |  | no binding | binds | binds
